# Measured values taken from PubChem BioAssay AID2685 (National Center for Advancing Translational Sciences (NCATS), 2010).
# The whole screen tested about 320,000 compounds, of which about 2,100 (0.66%) were called active. Inconclusive results, whose numbers are uncertain, are shown with a selection of clear calls. The call rests on the fitted dose curve; in most records, active means well fitted inhibition curve with a large enough effect in the signal ratio, with a control signal flat (not every such curve was filed as active); inconclusive means small, poorly fitted or top-dose-only effect, or effect the other way, or a change in a side signal; inactive means flat fitted curve, though single readings scatter; the % refers to the signal ratio. Potencies beside an inconclusive call are fits to weak or partial responses and may not hold up.
# Assay: qHTS Assay for Lipid Storage Modulators in Drosophila S3 Cells
# Conditions: BODIPY lipid droplet fluorescence, 18-24 h, cells fed with added oleic acid; lipid storage change, negative = inhibition: at 46.1 µM (top of the series) unless noted
# Procedure, shortened: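 Drosophila S3 cells loaded with oleic acid (400 uM, as added) and compounds at several concentrations; lipid droplets imaged by 488-nm laser-scanning cytometry, 500–530 nm intensity and object ratio to cell channel. Percent activity normalized to 20 uM Triacsin C.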
# On the % scale 0 is the no-effect control and ±100 the full control effect; potency means the concentration at half of the fitted maximal effect.
SMILES,Potency,"lipid storage change, negative = inhibition"
COc1ccc(S(=O)(=O)N2CCCC(C(=O)NC3CCCC3)C2)cc1OC (centres undefined),"inconclusive: 16.4 µM [falling, partial curve, poor fit]",–
CCN(CC(=O)Nc1c(F)cccc1F)C(=O)/C=C/c1ccc2ccccc2n1,–,inconclusive: -7.57%
O=C(COC(=O)/C=C/c1cccs1)Nc1nc(-c2ccccc2)cs1,–,inconclusive: 40%
CCN1C(=O)C(=O)N(CC(=O)c2[nH]c(C)c(C(C)=O)c2C)C1=O,–,inconclusive: 5.39%
COc1ccc(C(=O)CCN2CCCC(C)C2)cc1 (centres undefined),active: 11.6 µM,–
CC(C)Sc1cc(N2CCCC2)nc(-c2ccccc2Cl)n1,"inconclusive: 29.1 µM [rising, single point]",–
CC(C)(C)OC(=O)N1CCC(c2c(C(=O)NCC3CCN(C4CCCC4)C3)cnn2-c2ccccc2Cl)CC1 (centres undefined),–,inconclusive: -17.2%
CCC1(C)Cc2c(sc3nc(SC)[nH]c(=O)c23)CO1 (centres undefined),–,inconclusive: -4.47%
Cn1c(=O)c2c(ncn2CCCc2ccccc2)n(C)c1=O,–,inconclusive: 17.9%
COc1ccc(N(CC(=O)Nc2ccc(C(C)C)cc2)S(=O)(=O)c2c(C)noc2C)cc1,"inconclusive: 29.1 µM [activator, single point]",–
CSCCC(NC(=O)c1cccc(S(=O)(=O)N2CCOCC2)c1)C(=O)Nc1cccc(C)c1 (centres undefined),–,inconclusive: 17.1%
COc1cccc(OCCCCCCN2CCOCC2)c1,"inconclusive: 3.66 µM [falling, full curve]",–
COc1ccc(CCNC(=O)CSc2cccc3cccnc23)cc1OC,–,inconclusive: -14.4%
NC(=O)c1nsc(C(=O)N(Cc2cccnc2)C(C(=O)NCc2ccccc2)c2ccc(O)cc2)c1N (centres undefined),–,inconclusive: 77.3%
CC(C)(C)C(=O)N(Cc1ccccc1)c1ccccn1,–,inconclusive: -35.9% [at 0.369 µM]
O=C(N/N=C/c1cc2cc3c(cc2nc1Cl)OCCO3)c1ccccc1O,–,inconclusive: 7.34%
CC(C)=CCN1CCN(Cc2cnc(N3CCOCC3)s2)CC1CCO (centres undefined),active: 13 µM,–
Nc1nc(COc2ccc(F)cc2Cl)nc(N2CCCCC2)n1,–,inactive: 2.08%
O=C(Nc1ccc(F)cc1)C1CCN(C(=O)c2ccc([N+](=O)[O-])cc2)CC1,–,inconclusive: 27%
CSc1ccccc1NC(=O)Cn1nc([N+](=O)[O-])cc1C,–,inconclusive: 104%
COc1ccc(C(=O)O)cc1S(=O)(=O)N1CCSCC1,"inconclusive: 9.2 µM [activator, partial curve]",–
CC1C2C(c3ccccc3)N(C)C(=O)N(C)C2N(C)C(=O)N1C (centres undefined),–,inconclusive: -23%
CC(=O)Nc1nc(-c2ccc3c(c2)CCN3C(=O)C2CC2)c(C)s1,–,inconclusive: -10.5%
COc1cc(OC)cc(-c2c(-c3ccc(F)cc3)c3cc(Br)ccc3n2C)c1,"inconclusive: 1.16 µM [falling, partial curve, poor fit]",–
CCNC(=S)N/N=C/c1cccc(OCc2c(F)cccc2Cl)c1,"inconclusive: 3.26 µM [activator, partial curve, poor fit]",–

# A few values from the list:
# Potency with COc1ccc(C(=O)O)cc1S(=O)(=O)N1CCSCC1 reads inconclusive: 9.2 µM [activator, partial curve]
# lipid storage change, negative = inhibition with COc1ccc(CCNC(=O)CSc2cccc3cccnc23)cc1OC reads inconclusive: -14.4%

# (further entries)

SMILES,Potency,"lipid storage change, negative = inhibition"
CCn1cc(C(=O)Nc2ccc(OC)c(S(=O)(=O)N3CCCCC3)c2)c(=O)c2ccc(C)nc21,–,inconclusive: 30.7%
CCNCc1cc(Br)c(OCC(=O)Nc2ccccc2)c(OC)c1,–,inactive: 7.44%
CC(=O)N/C(=N\c1nc(C)cc(C)n1)Nc1ccc2ccccc2c1,–,inconclusive: -41.6%
N#Cc1cc2c(nc1SC1CCCCC1O)CCCC2 (centres undefined),–,inconclusive: -0.195%
CCOC(=O)C1=C(O)/C(=C/N(C)C)N=C1C,–,inconclusive: 4.73%
C=CCn1c(=O)/c(=C/c2ccc(F)cc2)s/c1=C(\C#N)c1nnc2n1CCCCC2,–,inconclusive: -13.9%
Cc1cc(O)ccc1NS(=O)(=O)c1ccc2c3c(cccc13)C(=O)N2,active: 0.366 µM,–
CC(C)(C)c1ccc(C(=O)NNC(=O)C2CCCCC2)cc1,"inconclusive: 0.0046 µM [falling, full curve, poor fit]",–
CCCNC(=O)N1CCC(C(=O)c2ccc(F)cc2)CC1,–,inconclusive: -23.8%
Cn1cnnc1SCC(=O)Nc1ccccc1F,–,inconclusive: 8.23% [at 9.22 µM]
NC(=O)c1cc([N+](=O)[O-])ccc1Nc1ccccc1,–,inconclusive: 10.1%
C#CCOCCOCCOCCNc1nc(N2CCN(C(=O)[C@H]([C@@H](C)CC)n3cc(CCCCN)nn3)CC2)nc(N2CCN(C(=O)[C@H](C)n3cc(CCCN=C(N)N)nn3)CC2)n1,–,inconclusive: 19.9%
N#CCSc1nc2ccc(N3CCOCC3)cc2c(=O)n1CCc1ccccc1,"inconclusive: 0.411 µM [rising, partial curve, poor fit]",–
COc1cc(C2c3c(oc4ccccc4c3=O)C(=O)N2c2ccc(C)cn2)ccc1O (centres undefined),"inconclusive: 4.11 µM [activator, full curve, poor fit]",–
CCc1cc(=O)oc2cc(C)cc(OCC(=O)NCC(O)c3ccccc3)c12 (centres undefined),"inconclusive: 29.1 µM [falling, single point]",–
Cc1ccccc1NC(=O)c1cnn(-c2ccccc2)c1C,"inconclusive: 23.1 µM [activator, single point]",–
O=S(=O)(Nc1nc2ccccc2nc1Cl)c1ccc(Cl)cc1,–,inconclusive: -1.16%
CC(C)(C)C(=O)NNC(=O)COc1ccc2ccccc2c1Br,–,inconclusive: -33.1% [at 0.00295 µM]
COCC(=O)N(C)CC1CCCN(CCc2ccccc2OC)C1 (centres undefined),"inconclusive: 0.92 µM [falling, full curve, poor fit]",–
O=c1cc(-c2ccco2)nc(-c2cccs2)o1,"inconclusive: 0.0052 µM [falling, full curve, poor fit]",–
O=c1c2ccccc2ncn1-c1ccccc1[N+](=O)[O-],–,inconclusive: -12.4%
CC(C)Cc1ccccc1S(N)(=O)=O,"inconclusive: 29.1 µM [activator, single point]",–
Cc1ccc(CC(=O)CCc2ccccc2)cc1,–,inconclusive: -16.7%
CCOC(=O)c1ccccc1NC(=O)CC1SC(=NC)N(C)C1=O (centres undefined),"inconclusive: 2.59 µM [activator, partial curve]",–

# Molecules listed so far that have a Cl atom, in the order listed:
SMILES,Potency,"lipid storage change, negative = inhibition"
CC(C)Sc1cc(N2CCCC2)nc(-c2ccccc2Cl)n1,"inconclusive: 29.1 µM [rising, single point]",–
CC(C)(C)OC(=O)N1CCC(c2c(C(=O)NCC3CCN(C4CCCC4)C3)cnn2-c2ccccc2Cl)CC1 (centres undefined),–,inconclusive: -17.2%
O=C(N/N=C/c1cc2cc3c(cc2nc1Cl)OCCO3)c1ccccc1O,–,inconclusive: 7.34%
Nc1nc(COc2ccc(F)cc2Cl)nc(N2CCCCC2)n1,–,inactive: 2.08%
CCNC(=S)N/N=C/c1cccc(OCc2c(F)cccc2Cl)c1,"inconclusive: 3.26 µM [activator, partial curve, poor fit]",–
O=S(=O)(Nc1nc2ccccc2nc1Cl)c1ccc(Cl)cc1,–,inconclusive: -1.16%
